Record: PubChem BioAssay AID686937 (Drosophila RNAi Screening Center, 2013)
The screen tested about 23,000 reagents; below is an unselected part of those that have a named target and a result. 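Reduced-secretion tags in replicate 1 do not always agree with the z-scores; no criterion for assigning the tags was given.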 The numbers tell different reagents against one gene apart. A plus sign joins genes that one reagent is predicted to hit. No sequences are given here. The record does not give: the amount of reagent.

Assay: 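Knock-downs that reduce output of a secreted reporter enzyme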 (primary screen)
Cell system: Drosophila S2 cells expressing secreted horseradish peroxidase
Reagent: long dsRNA against Drosophila genes
Timing: about 5.5 days (5 days dsRNA, then 12 h reporter induction)
Conditions: reporter expression induced after 5 days of dsRNA, read 12 h later; inducer not stated
Read-out: 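After 5 days of dsRNA and 12 h of reporter induction, medium peroxidase read by chemiluminescence and scored as per-plate z-score; higher values mean more reporter released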
Reading the numbers: z-score: higher = more reporter secreted into medium

target gene	reagent no.	z-score, replicate 1	z-score, replicate 2	z-score, replicate 3	z-score, replicate 4	phenotype, replicate 1
Cnx99A + Cnx14D	1	0.39	0.52			
Sgf29 (GeneID 37429)	1	0.5	0.49			
JIL-1 (GeneID 39241)	1	0.52	0.32			
dpr17 (GeneID 41470)	1	-0.34	0.12			
dpr17 (GeneID 41470)	2	0.05	-1.01			
dpr17 (GeneID 41470)	3	0.09	-0.18			
Lis-1 (GeneID 36791)	1	0.39	0.28			
RhoGAP5A (GeneID 31473)	1	0.52	0.53			
ccb (GeneID 33096)	1	0.22	0.31			
CG13384 (GeneID 34160)	1	0.11	0.26			
TAF1B (GeneID 41242)	1	0.47	0.51			
CG3868 (GeneID 39580)	1	0.44	0.51			
CG12016 + Dpm2	1	0	0.33			
CG42360 (GeneID 37937)	1	-0.05	0.08			
RnrS (GeneID 36280)	1	-1.9	-2.25			reduced secretion
CG11629 (GeneID 35431)	1	-0.02	0.27			
CG1907 (GeneID 43483)	1	0	0.17			
CG12824 (GeneID 35727)	1	0.24	0.26			
RpL13 (GeneID 34329)	1	0.52	0.8			reduced secretion
Smurf (GeneID 36999)	1	0.09	0.2			
mTerf3 (GeneID 40279)	1	0.24	0.21			
CG17568 (GeneID 35198)	1	0.29	0.27	0.33	0.01	
CG5532 (GeneID 37761)	1	0.6	-0.24			
CG7430 (GeneID 39988)	1	0.41	0.44			
CG1208 (GeneID 40727)	1	0.5	0.15			
a10 (GeneID 39906)	1	0.14	0.36			
SK (GeneID 31456)	1	0.32	0.01			
SK (GeneID 31456)	2	0.13	-0.48			
SK (GeneID 31456)	3	0.26	-0.69			
SK (GeneID 31456)	4	0.49	0.68			
SK (GeneID 31456)	5	0.32	-0.08			
SK (GeneID 31456)	6	1.43	0.75			
CG4452 (GeneID 39069)	1	0.03	-0.04			
CG5104 (GeneID 40280)	1	0.27	0.37			
CG13599 (GeneID 42829)	1	0.42	0.39			
Ugt37C2 (GeneID 53513)	1	0.27	0.25			
CG12123 (GeneID 31777)	1	0.49	0.59			
CG15625 (GeneID 33694)	1	0	0.16			
wrapper (GeneID 37555)	1	0.31	0.31			
Smyd3 (GeneID 44554)	1	-3.35	0.39			
CG1092 (GeneID 40538)	1	0.12	0.14			
CG14717 (GeneID 41412)	1	0.17	0.35			
CG9839 (GeneID 41055)	1	0.29	0.5			
Ssrp (GeneID 37767)	1	0.15	-0.56			
vri (GeneID 33759)	1	0.28	-0.17			
Gp93 (GeneID 43354)	1	0.12	0.31			
CG10352 (GeneID 32147)	1	0.15	-0.08			
lncRNA:roX1 (GeneID 3772376)	1	-0.02	0.14			
snk (GeneID 41607)	1	0.08	0.31			
CG6470 (GeneID 32840)	1	0.31	0.24			
hubl (GeneID 246567)	1	0.17	0.29			
CrebA (GeneID 39682)	1	0.02	0.24			
Cwc25 (GeneID 33460)	1	-1.2	-0.9			
ovo (GeneID 31429)	1	0.51	0.22			
ovo (GeneID 31429)	2	0.41	0.17			

Part of the list above, reformatted:
mTerf3 (GeneID 40279)
- z-score, replicate 1: 0.24
- z-score, replicate 2: 0.21

CG17568 (GeneID 35198)
- z-score, replicate 1: 0.29
- z-score, replicate 2: 0.27
- z-score, replicate 3: 0.33
- z-score, replicate 4: 0.01

CG5532 (GeneID 37761)
- z-score, replicate 1: 0.6
- z-score, replicate 2: -0.24

CG7430 (GeneID 39988)
- z-score, replicate 1: 0.41
- z-score, replicate 2: 0.44

CG1208 (GeneID 40727)
- z-score, replicate 1: 0.5
- z-score, replicate 2: 0.15

a10 (GeneID 39906)
- z-score, replicate 1: 0.14
- z-score, replicate 2: 0.36

SK (GeneID 31456) #1
- z-score, replicate 1: 0.32
- z-score, replicate 2: 0.01

SK (GeneID 31456) #2
- z-score, replicate 1: 0.13
- z-score, replicate 2: -0.48

SK (GeneID 31456) #3
- z-score, replicate 1: 0.26
- z-score, replicate 2: -0.69

SK (GeneID 31456) #4
- z-score, replicate 1: 0.49
- z-score, replicate 2: 0.68

SK (GeneID 31456) #5
- z-score, replicate 1: 0.32
- z-score, replicate 2: -0.08

SK (GeneID 31456) #6
- z-score, replicate 1: 1.43
- z-score, replicate 2: 0.75

CG4452 (GeneID 39069)
- z-score, replicate 1: 0.03
- z-score, replicate 2: -0.04

CG5104 (GeneID 40280)
- z-score, replicate 1: 0.27
- z-score, replicate 2: 0.37

Additional entries:
target gene	reagent no.	z-score, replicate 1	z-score, replicate 2	z-score, replicate 3	z-score, replicate 4	phenotype, replicate 1
Nox (GeneID 5740310)	1	0.41	0.18			
Nox (GeneID 5740310)	2	0.2	0.27			
dsf (GeneID 33823)	1	-0.11	-0.18			
CG7115 (GeneID 34069)	1	0.56	0.32			
CG6435 (GeneID 36894)	1	0.62	0.4			
CG9536 (GeneID 33904)	1	0.39	0.26			
CG15553 (GeneID 43677)	1	0.44	0.41			
Polr2B (GeneID 41721)	1	-4.66	-4.62			reduced secretion
CG9981 (GeneID 32609)	1	0.22	0.14			
Gr28b (GeneID 117496)	1	0.27	0.29			
Gr28b (GeneID 117496)	2	0.29	0.12			
Spred (GeneID 36643)	1	0.23	0.33			
CG42552 (retired record) (GeneID 8674047)	1	-1.27	0.22			
Ugt37A1 (GeneID 35307)	1	0.33	0.32			
Pif1A + Pif1B	1	0.18	0.38			
Pif1A + Pif1B	2	0.29	0.57			
Pif1A + Pif1B	3	0.39	0.54			
Teh2 (GeneID 38502)	1	0.33	0.31			
CG34429 (GeneID 5740606)	1	0.26	0.33			
snRNP-U1-70K (GeneID 33982)	1	0.16	0.08	0.18	0.07	
snRNP-U1-70K (GeneID 33982)	2	-1.17	-1.55			reduced secretion
CG43106 (GeneID 12797866)	1	0.48	0.23			
CG14132 (GeneID 50290)	1	-0.06	-0.13			
CG4955 (GeneID 32692)	1	0.26	0.48			
ckn (GeneID 36673)	1	0.19	0.32			
Cht10 (GeneID 3355116)	1	0.04	0.41			
Cht10 (GeneID 3355116)	2	0.18	0.25			
Cht10 (GeneID 3355116)	3	0.09	0.23			
